# Screening data, single-dose tests

Sequences of proteins named here, by UniProt entry; tags and fusion partners are left off. Residues count along the entry.
UniProt P9WPC5, whole entry: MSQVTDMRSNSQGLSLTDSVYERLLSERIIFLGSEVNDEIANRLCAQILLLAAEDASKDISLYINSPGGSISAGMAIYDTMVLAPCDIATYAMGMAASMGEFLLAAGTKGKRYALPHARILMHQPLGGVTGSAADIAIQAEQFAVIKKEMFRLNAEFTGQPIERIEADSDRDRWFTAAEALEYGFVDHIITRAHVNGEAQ
UniProt P9WPC3, whole entry partner: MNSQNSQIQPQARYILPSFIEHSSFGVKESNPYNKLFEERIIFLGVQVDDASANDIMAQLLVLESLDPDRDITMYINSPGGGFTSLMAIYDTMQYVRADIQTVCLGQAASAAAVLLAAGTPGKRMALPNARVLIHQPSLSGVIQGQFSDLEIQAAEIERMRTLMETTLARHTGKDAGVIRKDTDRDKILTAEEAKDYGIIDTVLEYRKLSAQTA
UniProt P9WNZ1, whole entry: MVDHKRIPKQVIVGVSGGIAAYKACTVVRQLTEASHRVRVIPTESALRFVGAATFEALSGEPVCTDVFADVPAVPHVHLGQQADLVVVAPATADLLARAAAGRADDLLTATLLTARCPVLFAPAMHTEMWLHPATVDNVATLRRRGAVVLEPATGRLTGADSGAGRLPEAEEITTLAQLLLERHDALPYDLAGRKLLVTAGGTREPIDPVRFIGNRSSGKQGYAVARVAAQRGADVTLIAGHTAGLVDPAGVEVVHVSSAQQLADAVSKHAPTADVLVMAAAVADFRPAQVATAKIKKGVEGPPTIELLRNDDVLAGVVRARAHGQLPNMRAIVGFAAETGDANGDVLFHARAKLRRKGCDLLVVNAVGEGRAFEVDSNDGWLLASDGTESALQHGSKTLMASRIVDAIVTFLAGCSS
UniProt Q8IDJ8, 1-583: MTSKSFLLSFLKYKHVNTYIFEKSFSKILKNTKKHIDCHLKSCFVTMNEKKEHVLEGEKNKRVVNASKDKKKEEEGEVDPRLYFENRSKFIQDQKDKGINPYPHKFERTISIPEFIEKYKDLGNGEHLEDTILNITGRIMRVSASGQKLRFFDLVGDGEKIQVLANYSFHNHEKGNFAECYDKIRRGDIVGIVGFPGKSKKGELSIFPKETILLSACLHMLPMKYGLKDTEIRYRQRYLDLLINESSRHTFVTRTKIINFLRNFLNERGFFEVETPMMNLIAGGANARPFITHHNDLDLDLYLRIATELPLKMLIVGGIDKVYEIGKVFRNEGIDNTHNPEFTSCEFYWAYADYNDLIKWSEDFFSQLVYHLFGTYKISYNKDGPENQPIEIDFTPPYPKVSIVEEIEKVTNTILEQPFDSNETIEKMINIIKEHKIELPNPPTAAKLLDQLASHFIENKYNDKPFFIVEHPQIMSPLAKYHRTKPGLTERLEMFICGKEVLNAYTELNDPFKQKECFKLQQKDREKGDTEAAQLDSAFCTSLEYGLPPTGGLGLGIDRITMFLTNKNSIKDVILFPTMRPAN

Measurements from “University of Dundee, Small-Polar-MMV Screening Library” (2021), ChEMBL document CHEMBL3988442.

A: 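ClpP1P2, Mycobacterium tuberculosis (UniProt P9WPC5 and UniProt P9WPC3). Protease assay of ClpP1P2, read by the AMC dye that it sets free. Compounds at 50 µM. Direction is inferred from only a few compounds that gave an IC50; most scored high, so higher reads as stronger inhibition. Most other retested compounds had strongly negative values. Size under these conditions: about 69,000 compounds, about 10 of them at 50% or above in at least one test.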
B: 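Enzyme assay of CoaBC with a phosphate dye (Biomol Green) read at 650 nm. Target: Coenzyme A biosynthesis protein CoaBC, Mycobacterium tuberculosis (UniProt P9WNZ1). Concentration: 30 µM. Direction is inferred from only a few compounds that gave an IC50; most scored high, so higher reads as stronger inhibition. Most strong results did not repeat in a second test. Of about 67,000 compounds tested this way, about 40 (0.06%) reached 50% or more in at least one test.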
C: 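Lysine-tRNA ligase, Plasmodium falciparum 3D7 (UniProt Q8IDJ8). Enzyme assay of the cytosolic lysyl-tRNA synthetase in 384-well plates, read by luminescence. Tested at 30 µM. Direction is inferred from only a few compounds that gave an IC50; most scored high, so higher reads as stronger inhibition. Of about 69,000 compounds tested this way, about 49 (0.071%) reached 50% or more in at least one test.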

Each number is a percent effect as filed. How 0% and 100% were set is not recorded. Most values in the screen are low, and negative values occur. The compounds are a random part of those screened. Two or more numbers in one place are separate tests of the same structure; such repeats can differ widely. A dash means the value is not listed here; it may have been measured.

compound,A,B,C
CCc1ccc(CN2CCC3(CC2)CC(N2CCN(C)CC2)CO3)cc1 (stereo not given),0.6471%,5.656%,0.8034%
Fc1cccc(Cc2cncc(C3CCCN3C3CCOCC3)n2)c1 (stereo not given),-13.26%,5.256%,-0.7825%
CC(Cc1ccco1)NC(=O)Nc1ccc(S(C)(=O)=O)nc1 (stereo not given),12.93%,1.33%,4.499%
Cc1nn(C)c2cnn(CC(=O)NCc3ccc(F)cc3)c12,-3.569%,9.238%,-6.273%
CCS(=O)(=O)N1C[C@H]2CN(CC3CC3)C(=O)[C@H]2C1,7.7%,5.61%,4.333%
Cc1c[nH]c(C2COCCN2C(=O)c2n[nH]c(=O)c3ccccc23)n1 (stereo not given),15.8%,4.468%,-1.437%
Cc1cnn(CC2CN(CC(=O)Nc3nncs3)CCO2)c1 (stereo not given),-28.5%,4.348%,0.6671%
c1cc2n(n1)CC(CNCc1ccc(OCC3CC3)nc1)CN2 (stereo not given),6.863%,6.988%,7.13%
CC(C)c1cc(C(=O)N(C)C(C)c2nccs2)no1 (stereo not given),-5.144%,3.289%,2.548%
Cc1nc2c(c(NCc3ccccc3)n1)CCN(C(=O)NC(C)C)CC2,0.4246%,1.535%,7.797%
O=C(NCCn1ccnc1)c1ccn(-c2ccccc2)n1,18.14%,1.434%,1.177%
CS(=O)(=O)N1CCC(NCC2(N3CCOCC3)CCCCC2)CC1,-15.02%,0.7317%,5.478%
Cc1cc(C)c2cc(CNC(C)C)c3nn(C)c(=O)n3c2c1,-57.19%,-2.179%,4.539%
Cn1c(CN2CCCCC2)nnc1C1CCCN(c2ccncc2F)C1 (stereo not given),3.772%,2.299%,9.399%
O=C(CCc1ccco1)N1CCC(Nc2cccnn2)CC1,-3.765%,14.91%,3.929%
Cc1noc(-c2ccc(N3CCCC(C(N)=O)C3)nc2)n1 (stereo not given),-11.63%,1.623%,3.495%
CN(C)c1nccc(N(C)C2CCN(CC3CCOC3)CC2)n1 (stereo not given),2.291%,3.306%,2.658%
COc1cc(N2CCC3(CC(=O)N(Cc4csc(C)n4)C3)C2)ncn1 (stereo not given),-13.6%,2.97%,3.97%
CC[C@@H](CO)Nc1cc(-c2cn[nH]c2)ncn1,-0.9149%,3.494%,1.983%
CC(C)NC(=O)CNC(=O)N1CCc2c([nH]c3ccc(Cl)cc23)C1,1.52%,1.515%,-5.213%
CN(Cc1ccc(C(=O)Nc2sccc2C#N)cc1)Cc1ccno1,12.12%,2.479%,13.22%
CC(C)Cn1cncc1-c1nc2c([nH]1)CC(C)(C)CNC2=O,9.937%,3.893%,3.556%
CS(=O)(=O)N1CCN(C(=O)CN2CCCc3c(F)cc(F)cc32)CC1,4.108%,-2.206%,-2.718%
COc1coc(C(=O)Nc2nc(-c3ccccn3)cs2)cc1=O,-7.762%,-0.4819%,-2.631%
Nc1nc2c(c(NC(=O)Nc3ccccc3)n1)CCCC2,13.17%,-3.171%,-2.184%
CN1CC(c2ccccc2)CC12CCN(C(=O)c1ccc(Cl)cn1)CC2 (stereo not given),-0.6288%,0%,4.209%
CN1[C@H](CN2CCCC2)C[C@@H]2CN(C(=O)c3cccn3C)CC[C@@H]21,8.963%,0.9674%,4.618%
CN(Cc1ccccc1)CC(O)Cn1cnc2ccccc2c1=O (stereo not given),-9.473%,5.181%,2.79%
COC1CCN(S(=O)(=O)N2CCCC(c3cccc(C(=O)O)c3)C2)CC1 (stereo not given),7.247%,0.4292%,5.417%
Nc1cc(-c2c[nH]nc2C2CCCCN2C(=O)C2CCCC2)ccn1 (stereo not given),-24.51%,1.914%,0.3844%
Cc1nsc(NC(=O)N2CCN(Cc3ccccc3F)C(=O)C2)n1,-6.435%,9.127%,4.466%
CCc1[nH]c2c(CNC(=O)C3CCN(C)C3)cc(C)cc2c1C (stereo not given),-38.48%,0.8696%,4.4%
Cn1cc(CN2CCCN(CCCc3ccccc3)CC2)cn1,-0.1309%,-4.4%,4.49%
COc1ccccc1CNC(=O)Cn1ncc2c1c(C)nn2C,9.66%,1.211%,12.16%
CN(CCc1noc(C2CC2)n1)C(=O)CN1C(=O)COc2ccccc21,2.151%,7.356%,6.558%
CC(C)NC(=O)N1CCc2nc(C(=O)NCc3ccccc3)sc2CC1,-5.172%,4.113%,1.129%
COC(C)(C)c1noc(C2(C#N)CCCCC2)n1,-7.247%,1.499%,2.641%
c1cnc(Nc2ccc(C3CCCCN3Cc3ccncc3)cn2)nc1 (stereo not given),-18.04%,0%,0.3282%
CCc1ccc(C(=O)NCCNc2ncccn2)cc1,0.7742%,-0.6519%,-0.8864%
Cc1noc(CCCNS(=O)(=O)N2CCCC2c2ccco2)n1 (stereo not given),-12.1%,14.96%,1.86%
O=C1COC2(CCN(Cc3cccs3)CC2)CN1c1ccccc1,-6.057%,-1.075%,3.213%
CCCN(C)S(=O)(=O)NC(=O)c1ccc(CC)o1,-2.807%,7.923%,-0.1894%
CC(C)c1cc(C(=O)N[C@@H]2CC[C@@H](Oc3ccccc3)[C@@H]2O)on1,-6.743%,-23.49%,0.03492%
CCC1=N[C@@]2(CC[C@@H]3CN(C(=O)NCC(C)C)C[C@@H]32)C(=O)N1CCOC,-5.114%,6.129%,1.861%
Cn1cc(CN2CCC(CCC(=O)NCc3ccc(F)cc3)CC2)cn1,-5.664%,-0.216%,1.996%
O=S(=O)(NC1CCCCC12OCCO2)c1cc(F)cc(F)c1 (stereo not given),8.754%,8.763% and 30.19%,11.6%
C1CCN(c2nc(N3CCOCC3)nc3[nH]nnc23)CC1,-18.04%,0.7856%,1.115%
O[C@H]1COCCN(Cc2cccc3c2OCO3)C1,-9.048%,-4.126%,6.167%
Cn1c(SCC2OCCc3ccccc32)n[nH]c1=O (stereo not given),1.408%,7.269%,11.98%
Cc1ccc(N2CCCC(NCc3ccsc3)C2)nn1 (stereo not given),8.246%,1.542%,4.311%
CCN(Cc1ccco1)C(=O)NCC(c1cccs1)N(C)C (stereo not given),-2.568%,-,-6.929%
CC(C)(CNC(=O)COc1cccc(F)c1)C(N)=O,-14.82%,-3.836%,-0.507%
O=S(=O)(c1ccccc1)N1CCN(CCn2ccnc2)CC1,-4.482%,-34.33%,2.863%
CC(C)C(Sc1ccccc1)C(=O)N(C)Cc1nnc2n1CCC2 (stereo not given),2.176%,-,0.3939%
CC(O)(CNC(=O)c1c(F)cccc1Cl)c1ccco1 (stereo not given),-11.45%,1.527%,1.475%
Cc1ncc2c(n1)CN(CC(=O)Nc1ccncc1)CC2,-5.573%,2.17%,6.2%
COCc1noc(CN2CCC3(CC2)[C@H](O)C[C@@H]3OC)n1,-10.57%,-0.4938%,5.612%
Cc1cc2c(N3CCC(N(C)CCc4cnn(C)c4)CC3)ncnc2s1,-13.02%,7.522%,2.444%
CCCn1c(C)cc(C(=O)CN2C(=O)c3ccccc3CS2(=O)=O)c1C,-8.424%,-0.6397%,0%
COc1cnc(C2(O)CCN(C(=O)c3ccccn3)CC2)c(OC)n1,-6.284%,-2.427%,0.5488%
CC(C)C[C@H](NCc1cc(O)c2cccc(F)c2n1)C(N)=O,0.3141%,4.464%,3.132%
c1cc(-c2c[nH]c([C@@H]3COCCN3C3CCOCC3)n2)ccn1,4.381%,-4.194%,-0.1009%
CCCC(O)CNc1cncc(Br)c1 (stereo not given),-1.754%,8.884%,8.52%
Cc1cnc(N2CCOC3(CCCN(c4ncccn4)C3)C2)nc1 (stereo not given),-11.45%,-0.4167%,1.93%

The first 4 entries again:

| compound | A | B | C |
|---|---|---|---|
| `CCc1ccc(CN2CCC3(CC2)CC(N2CCN(C)CC2)CO3)cc1` (stereo not given) | 0.6471% | 5.656% | 0.8034% |
| `Fc1cccc(Cc2cncc(C3CCCN3C3CCOCC3)n2)c1` (stereo not given) | -13.26% | 5.256% | -0.7825% |
| `CC(Cc1ccco1)NC(=O)Nc1ccc(S(C)(=O)=O)nc1` (stereo not given) | 12.93% | 1.33% | 4.499% |
| `Cc1nn(C)c2cnn(CC(=O)NCc3ccc(F)cc3)c12` | -3.569% | 9.238% | -6.273% |